Experimental data from patent US6407062.
Results are given in words; binding and its absence hold for the method and conditions named. Binding seen in cells or lysates may run through a third protein. Some binding calls cover weakened binding; strength is not graded here.

Sequences of proteins named here, by UniProt entry; tags and fusion partners are left off. A change or cut given only in a name is not applied to a line headed by its entry.
UniProt P23804: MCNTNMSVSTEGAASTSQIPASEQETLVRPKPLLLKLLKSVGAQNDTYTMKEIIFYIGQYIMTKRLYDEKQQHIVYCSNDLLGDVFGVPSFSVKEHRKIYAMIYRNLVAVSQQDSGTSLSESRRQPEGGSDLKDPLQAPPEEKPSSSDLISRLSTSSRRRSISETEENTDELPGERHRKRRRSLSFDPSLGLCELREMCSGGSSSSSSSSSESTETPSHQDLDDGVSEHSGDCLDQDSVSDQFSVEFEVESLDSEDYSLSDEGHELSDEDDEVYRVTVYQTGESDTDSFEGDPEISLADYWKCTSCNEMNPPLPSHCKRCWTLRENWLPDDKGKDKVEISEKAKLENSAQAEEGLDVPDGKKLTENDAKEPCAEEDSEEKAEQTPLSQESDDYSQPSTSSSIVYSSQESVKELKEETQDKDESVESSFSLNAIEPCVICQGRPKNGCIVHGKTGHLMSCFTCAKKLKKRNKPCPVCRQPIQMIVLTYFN

Key:
[1] = biological target: Mdm2 (Murine Double Minute 2, full-length) (mouse) (UniProt P23804); test: co-immunoprecipitation from Sf9 cells co-infected with baculoviruses
[2] = biological target: Mdm2 (Murine Double Minute 2, full-length) (mouse) (UniProt P23804); test: co-immunoprecipitation from co-infected Sf9 cells
[3] = biological target: Mdm2 (Murine Double Minute 2, full-length) (mouse) (UniProt P23804); test: co-immunoprecipitation from Sf9 cells co-infected with ARF, mdm2 and p53 (22/23/281)
[4] = biological target: Mdm2 (Murine Double Minute 2, full-length) (mouse) (UniProt P23804); test: co-immunoprecipitation

Measured: binding

B1: p19^ARF expressed in Sf9 cells from a baculovirus vector (Example 9) (protein, not shown: small tags and cut ends)
chain: MGRRFLVTVRIQRAGRPLQERVFLVKFVRSRRPRTASCALAFVNMLLRLERILRRGPHRNPGPGDDDGQRSRSSSSAQLRCRFELRGPHYLLPPGARRSAGRLPGHAGGAARVRGSAGCARCLGSPAARLGPRAGTSRHRAIFAFRWVLFVFRWVVFVYRWERRPDRRA
binds: all assays above
